The values below come from PubChem BioAssay AID180 (DTP/NCI, 2004).

The test deals with BDF1 mice, Adenocarcinoma 755 s.c., tumor weight T/C. As to the kind of experiment: NCI In Vivo Anticancer Drug Screen. Data for tumor model Adenocarcinoma 755 (subcutaneous) in B6D2F1 (BDF1) mice. As to conditions: T/C endpoint: mean tumor weight, higher T/C = larger tumour; for T/C: evaluated on day 12. The procedure, abridged:
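In vivo antitumor screen on a transplantable tumor line. Result equals the measure in compound-treated animals divided by the same measure in vehicle controls.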

Setting [1] is: dose: 240.0 mg/kg/injection, schedule: Q01DX011 (ip), vehicle: carboxymethylcellulose (CMC).
The mark [2] stands for this setting: dose: 433.0 mg/kg/injection, schedule: Q01DX011 (ip), vehicle: carboxymethylcellulose (CMC).

Each structure is given as a SMILES string. The list does not hold the whole screen: it gathers tests that were run many times, whatever their T/C, doses with no T/C, and many T/C values between a quarter and a half above the control. Other doses and runs of a compound stand elsewhere. T/C is the treated group as % of the vehicle group. Schedules are NCI's codes, taken here to give the interval after Q, in days (D) or hours (H), and the number of doses after X. Some doses were run more than once; the values are given in rising order. Some T/C values are followed by the survivors on the day toxicity was checked, most often the fifth; without a count, all were alive then. Some doses have a count of surviving animals in place of a T/C: the source files T/C as zero there, which appears to mark a toxic dose or a test without result, not a measured value. Counts of survivors are from the toxicity check (mostly the fifth day) where no day follows; animals may have died later.

`CN(C)c1nc(Cl)nc2c1nc(Cl)n2C1CCCCO1` (stereo unspecified): under setting [1], the survivor count is 0 of 10.
Consider `CCOCCNS(=O)(=O)c1ncnc2nc[nH]c12`, for which the survivor count under setting [1] is 0 of 10.
As for `CS(=O)(=O)OCCCCCCCCCOS(C)(=O)=O`, for the setting “dose: 110.0 mg/kg/injection, schedule: Q01DX011 (ip), vehicle: carboxymethylcellulose (CMC)”, the survivor count was 0 of 10.
For the compound `CO[C@@H]1[C@@H](OC2OC(C)C(OC3CC(C)(O)C(OC(=O)CC(C)C)C(C)O3)C(N(C)C)C2O)[C@@H](CC=O)C[C@@H](C)C(=O)/C=C/C2O[C@H]2C[C@@H](C)OC(=O)C[C@H]1OC(C)=O` (stereo partly specified), the survivor count (dose: 350.0 mg/kg/injection, schedule: Q01DX011 (ip), vehicle: other) is listed as 5 of 10.
Turning to `CCC1CN1P(=S)(N1CC1CC)N1CC1CC` (stereo unspecified), the survivor count (dose: 226.0 mg/kg/injection, schedule: Q01DX011 (ip), vehicle: saline) was 0 of 10.
With `Nc1ncnc2c1nc(Br)n2C1OC(CO)C(O)C1O` (stereo unspecified), the T/C reads like this: (dose: 60.0 mg/kg/injection, schedule: Q01DX011 (ip), vehicle: carboxymethylcellulose (CMC)) 127 % of control [9 of 10 alive]; under setting [1], 133 % of control.
With `CC(=O)NCCSC(=O)C(=O)SCCNC(C)=O`, the T/C (dose: 100.0 mg/kg/injection, schedule: Q01DX011 (ip), vehicle: saline) is 136 % of control [9 of 10 alive]. Also, under “dose: 400.0 mg/kg/injection, schedule: Q01DX011 (ip), vehicle: saline”, the survivor count is on record as 0 of 10.
As for `CCCCCCOP(=O)(N1CC1C)N1CC1C` (stereo unspecified), the survivor count (dose: 12.5 mg/kg/injection, schedule: Q01DX011 (ip), vehicle: saline) is on record as 5 of 10.
For the compound `CC1CN1P(=O)(N1CCCCC1)N1CC1C` (stereo unspecified), for the setting “dose: 96.0 mg/kg/injection, schedule: Q01DX011 (ip), vehicle: saline”, the survivor count is given as 4 of 10.
In the case of `O=C(CCBr)N1CN(C(=O)CCBr)CN(C(=O)CCBr)C1`, the T/C (dose: 28.0 mg/kg/injection, schedule: Q01DX011 (ip), vehicle: methylcellulose (MC)) is 126 % of control.
Consider `CCSc1ncc(Br)c(Sc2nc(N)nc3nc[nH]c23)n1`, for which, for the setting “dose: 16.0 mg/kg/injection, schedule: Q01DX011 (ip), vehicle: carboxymethylcellulose (CMC)”, the survivor count is recorded as 0 of 10.
With `Oc1ccc2ccccc2c1N=Nc1ccc(N=Nc2ccccc2)cc1`, where the note is “dose: 50.0 mg/kg/injection, schedule: Q01DX011 (ip), vehicle: carboxymethylcellulose (CMC)”, the T/C was 141 % of control.
Take `NNC(=O)c1ccncc1`: the T/C (dose: 35.25 mg/kg/injection, schedule: Q01DX011 (ip), vehicle: carboxymethylcellulose (CMC)) was 140 % of control. The survivor count (dose: 154.0 mg/kg/injection, schedule: Q01DX011 (ip), vehicle: carboxymethylcellulose (CMC)) is 6 of 10.
Turning to `c1ncc2[nH]cnc2n1`, the T/C was 129 % of control [9 of 10 alive] (dose: 108.25 mg/kg/injection, schedule: Q01DX011 (ip), vehicle: carboxymethylcellulose (CMC)); 55, 100, 103, 108 % of control (dose: 216.5 mg/kg/injection, schedule: Q01DX011 (ip), vehicle: carboxymethylcellulose (CMC)); 13 [9 of 10 alive], 31, 57 % of control [9 of 10 alive] under setting [2]. Moreover, the survivor count under setting [2] was 6 of 10 and the survivor count (dose: 500.0 mg/kg/injection, schedule: Q01DX011 (ip), vehicle: methylcellulose (MC)) was 2 of 10.
For the compound `CNC=O`, the T/C reads like this: (dose: 35.3 mg/kg/injection, schedule: Q01DX011 (ip), vehicle: carboxymethylcellulose (CMC)) 131 % of control; (dose: 180.0 mg/kg/injection, schedule: Q01DX011 (ip), vehicle: carboxymethylcellulose (CMC)) 130 % of control. For the setting “dose: 374.7 mg/kg/injection, schedule: Q01DX011 (ip), vehicle: carboxymethylcellulose (CMC)”, the survivor count is given as 1 of 10.
`Cc1cc2c(cc1C)NC(C)CC(=O)N2` (stereo unspecified): the survivor count (dose: 100.0 mg/kg/injection, schedule: Q01DX011 (ip), vehicle: carboxymethylcellulose (CMC)) was 6 of 10; the survivor count (dose: 200.0 mg/kg/injection, schedule: Q01DX011 (ip), vehicle: other) is listed as 2 of 10; the survivor count (dose: 400.0 mg/kg/injection, schedule: Q01DX011 (ip), vehicle: carboxymethylcellulose (CMC)) is on record as 0 of 10; the survivor count (dose: 400.0 mg/kg/injection, schedule: Q01DX011 (ip), vehicle: other) is on record as 0 of 10.
For the compound `CCc1nc(N)nc(N)c1-c1ccc(Cl)c(Cl)c1`, the survivor count runs as follows: (dose: 2.0 mg/kg/injection, schedule: Q01DX011 (ip), vehicle: methylcellulose (MC)) 6 of 10; (dose: 4.0 mg/kg/injection, schedule: Q01DX011 (ip), vehicle: methylcellulose (MC)) 5 of 10; (dose: 8.0 mg/kg/injection, schedule: Q01DX011 (ip), vehicle: methylcellulose (MC)) 1 of 10.
On to `Clc1ccccc1CSc1ncnc2nc[nH]c12`, for which, under “dose: 500.0 mg/kg/injection, schedule: Q01DX011 (ip), vehicle: other”, the survivor count is recorded as 0 of 10.
Consider `O=C1NC(=O)C(c2ccc(Cl)cc2)(c2ccccc2Cl)N1` (stereo unspecified), for which the survivor count reads like this: (dose: 1000.0 mg/kg/injection, schedule: Q01DX011 (ip), vehicle: carboxymethylcellulose (CMC)) 6 of 10; (dose: 1200.0 mg/kg/injection, schedule: Q01DX011 (ip), vehicle: other) 1 of 10.
For `S=P(N1CC1)(N1CC1)N1CC1`, the T/C reads like this: (dose: 0.48 mg/kg/injection, schedule: Q01DX011 (ip), vehicle: carboxymethylcellulose (CMC)) 129 % of control; (dose: 0.58 mg/kg/injection, schedule: Q01DX011 (ip), vehicle: carboxymethylcellulose (CMC)) 146 % of control; (dose: 2.08 mg/kg/injection, schedule: Q01DX011 (ip), vehicle: carboxymethylcellulose (CMC)) 125 % of control; (dose: 2.6 mg/kg/injection, schedule: Q01DX011 (ip), vehicle: carboxymethylcellulose (CMC)) 128 % of control; (dose: 3.46 mg/kg/injection, schedule: Q01DX011 (ip), vehicle: carboxymethylcellulose (CMC)) 125 % of control.
As to `Nc1nc(SCc2cccnc2)c2[nH]cnc2n1`, the survivor count is, setting by setting: (dose: 20.0 mg/kg/injection, schedule: Q01DX011 (ip), vehicle: methylcellulose (MC)) 6 of 10; (dose: 65.0 mg/kg/injection, schedule: Q01DX011 (ip), vehicle: methylcellulose (MC)) 1 of 10.
In the case of `Cc1ccc(N=S=O)cc1`, the survivor count (dose: 250.0 mg/kg/injection, schedule: Q01DX011 (ip), vehicle: saline) is given as 0 of 10.
In the case of `CCC(=O)O[C@H]1CC[C@H]2[C@@H]3CCC4=CC(=O)CC[C@]4(C)[C@H]3[C@@H](O)C[C@]12C`, the T/C (dose: 450.0 mg/kg/injection, schedule: Q01DX011 (sc), vehicle: steroid suspending solution) was 137 % of control.
With `CC(Cc1ccccc1)NC(=O)CCl` (stereo unspecified), the survivor count (dose: 37.0 mg/kg/injection, schedule: Q01DX011 (ip), vehicle: other) is on record as 3 of 10; the survivor count (dose: 50.0 mg/kg/injection, schedule: Q01DX011 (ip), vehicle: other) is 2 of 10; the survivor count (dose: 112.0 mg/kg/injection, schedule: Q01DX011 (im), vehicle: other) is 5 of 10; the survivor count (dose: 112.0 mg/kg/injection, schedule: Q01DX011 (sc), vehicle: other) is 3 of 10.
Turning to `CCN(CC)CCOc1ccc(/C=N/Nc2nc3c(c(=O)n(C)c(=O)n3C)n2C)cc1`, the survivor count (dose: 480.0 mg/kg/injection, schedule: Q01DX011 (ip), vehicle: carboxymethylcellulose (CMC)) was 5 of 10.
With `C[C@]12CCC(=O)C=C1CC[C@@H]1[C@@H]2[C@@H](O)C[C@]2(C)C(=O)CC[C@@H]12`, for the setting “dose: 25.0 mg/kg/injection, schedule: Q01DX011 (sc), vehicle: steroid suspending solution”, the T/C was 136 % of control.
In the case of `NC(=O)c1cn(C2OC(CO)C(O)C2O)c2ncnc(N)c12` (stereo unspecified), for the setting “dose: 1.0 mg/kg/injection, schedule: Q01DX011 (ip), vehicle: carboxymethylcellulose (CMC)”, the survivor count was 0 of 10.
With `CCCn1cnc2c(SCc3ccccc3)nc(N)nc21`, the survivor count (dose: 125.0 mg/kg/injection, schedule: Q01DX011 (ip), vehicle: methylcellulose (MC)) is 6 of 10.
